Some of the results follow.
Key:
Experiment in all cases: log2 fold change, soluble protein after heating vs DMSO (PISA); higher = thermal stabilisation; K562 lysate, 10 uM; active = over 0.2 and 3.5 SD of the protein, either way, in both replicates (recomputed)
[1] = compound: CN1CC[C@H](c2c(O)cc(O)c3c(=O)cc(-c4ccccc4Cl)oc23)[C@H](O)C1 [alvocidib]
Procedure, shortened: (§1)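 Soluble protein was defined as the supernatant remaining after 21,000xg for 90 min, following pooling of heated aliquots and adjustment to 0.5% NP-40 at 4°C. Before that, crude K562 extract at 1 mg/mL protein in PBS pH 7.4 with 1 mM MgCl2 was treated with 10 μM compound for 30 min and heated for 3 min across 48°C-58°C. Quantification used TMTpro 16plex LC-MS/MS with channel sums equalised, and values are log-two fold changes in thermal stability relative to solvent controls from duplicates.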

The chains behind the UniProt entries cited, without tags or fusion partners. Where a name states a change or a piece, a line headed by the entry shows the natural chain unless it says otherwise.
UniProt Q9Y6U3: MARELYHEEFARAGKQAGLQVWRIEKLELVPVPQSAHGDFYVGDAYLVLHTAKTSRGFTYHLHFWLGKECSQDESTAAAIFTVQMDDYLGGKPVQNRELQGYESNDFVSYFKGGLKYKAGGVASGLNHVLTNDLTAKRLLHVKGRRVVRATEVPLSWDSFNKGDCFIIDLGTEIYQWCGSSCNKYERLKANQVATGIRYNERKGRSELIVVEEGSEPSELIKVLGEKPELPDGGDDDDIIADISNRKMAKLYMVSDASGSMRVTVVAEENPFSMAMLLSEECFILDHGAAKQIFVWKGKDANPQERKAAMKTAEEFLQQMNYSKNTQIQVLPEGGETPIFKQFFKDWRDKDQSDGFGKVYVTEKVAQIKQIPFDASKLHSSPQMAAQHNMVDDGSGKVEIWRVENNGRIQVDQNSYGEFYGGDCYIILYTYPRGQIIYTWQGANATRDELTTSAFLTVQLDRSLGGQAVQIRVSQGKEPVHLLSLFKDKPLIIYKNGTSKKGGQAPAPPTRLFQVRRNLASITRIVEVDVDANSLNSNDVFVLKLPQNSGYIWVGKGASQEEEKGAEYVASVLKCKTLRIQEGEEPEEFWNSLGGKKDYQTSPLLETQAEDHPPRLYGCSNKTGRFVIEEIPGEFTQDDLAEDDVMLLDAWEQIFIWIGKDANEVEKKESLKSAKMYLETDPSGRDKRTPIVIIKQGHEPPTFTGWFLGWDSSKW
UniProt Q93073: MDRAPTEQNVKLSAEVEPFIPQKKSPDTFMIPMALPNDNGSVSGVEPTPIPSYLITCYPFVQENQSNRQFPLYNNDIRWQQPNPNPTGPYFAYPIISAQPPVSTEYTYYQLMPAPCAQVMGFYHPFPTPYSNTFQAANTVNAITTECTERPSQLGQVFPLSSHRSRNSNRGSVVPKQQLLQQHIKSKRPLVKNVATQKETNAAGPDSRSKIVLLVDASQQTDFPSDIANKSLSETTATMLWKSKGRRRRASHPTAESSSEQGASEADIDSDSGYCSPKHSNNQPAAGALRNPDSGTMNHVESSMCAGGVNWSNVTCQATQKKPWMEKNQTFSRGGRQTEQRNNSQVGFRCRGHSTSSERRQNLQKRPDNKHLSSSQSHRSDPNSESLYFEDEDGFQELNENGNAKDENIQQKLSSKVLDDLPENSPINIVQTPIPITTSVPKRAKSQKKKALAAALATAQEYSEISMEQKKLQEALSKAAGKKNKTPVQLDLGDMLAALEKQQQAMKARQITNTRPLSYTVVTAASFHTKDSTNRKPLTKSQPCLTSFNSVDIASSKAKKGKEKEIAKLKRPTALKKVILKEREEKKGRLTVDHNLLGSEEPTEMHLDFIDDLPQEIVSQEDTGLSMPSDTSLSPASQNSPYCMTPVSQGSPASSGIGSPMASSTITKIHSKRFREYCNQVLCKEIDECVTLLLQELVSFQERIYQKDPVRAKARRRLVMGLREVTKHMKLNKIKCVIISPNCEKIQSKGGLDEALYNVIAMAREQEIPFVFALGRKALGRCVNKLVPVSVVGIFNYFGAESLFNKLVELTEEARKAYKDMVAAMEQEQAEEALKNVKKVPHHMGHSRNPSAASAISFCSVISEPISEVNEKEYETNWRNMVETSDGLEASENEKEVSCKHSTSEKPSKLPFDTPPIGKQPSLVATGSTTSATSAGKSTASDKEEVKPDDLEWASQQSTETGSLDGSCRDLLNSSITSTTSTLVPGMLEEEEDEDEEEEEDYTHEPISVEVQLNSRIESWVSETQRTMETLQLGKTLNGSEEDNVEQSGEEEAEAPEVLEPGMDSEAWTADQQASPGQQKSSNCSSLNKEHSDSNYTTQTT
UniProt Q9NTJ5: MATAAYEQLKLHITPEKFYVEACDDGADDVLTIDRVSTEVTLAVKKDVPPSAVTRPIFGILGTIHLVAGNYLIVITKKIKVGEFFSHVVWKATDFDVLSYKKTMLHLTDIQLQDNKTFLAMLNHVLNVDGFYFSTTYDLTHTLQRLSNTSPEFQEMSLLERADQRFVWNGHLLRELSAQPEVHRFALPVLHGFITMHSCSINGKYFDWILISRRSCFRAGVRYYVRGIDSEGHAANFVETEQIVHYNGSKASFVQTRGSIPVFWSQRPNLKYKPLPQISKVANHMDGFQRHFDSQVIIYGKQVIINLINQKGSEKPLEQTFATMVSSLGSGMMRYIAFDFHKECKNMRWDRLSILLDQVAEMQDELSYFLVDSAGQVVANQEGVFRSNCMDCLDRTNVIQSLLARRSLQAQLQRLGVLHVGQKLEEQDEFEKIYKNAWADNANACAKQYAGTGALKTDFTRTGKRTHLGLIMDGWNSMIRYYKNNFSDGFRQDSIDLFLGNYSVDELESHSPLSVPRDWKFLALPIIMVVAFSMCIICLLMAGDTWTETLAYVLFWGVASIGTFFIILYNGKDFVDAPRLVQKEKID
UniProt Q99442: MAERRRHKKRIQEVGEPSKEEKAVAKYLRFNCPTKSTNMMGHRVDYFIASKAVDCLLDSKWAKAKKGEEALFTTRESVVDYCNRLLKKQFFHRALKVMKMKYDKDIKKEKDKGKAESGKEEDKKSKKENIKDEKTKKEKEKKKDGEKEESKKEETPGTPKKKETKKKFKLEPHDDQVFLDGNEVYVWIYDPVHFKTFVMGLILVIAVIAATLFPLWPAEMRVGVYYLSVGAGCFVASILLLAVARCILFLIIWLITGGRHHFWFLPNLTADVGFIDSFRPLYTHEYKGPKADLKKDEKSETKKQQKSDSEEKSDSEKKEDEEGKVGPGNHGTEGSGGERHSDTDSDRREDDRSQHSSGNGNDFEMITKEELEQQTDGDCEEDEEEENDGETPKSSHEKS
UniProt P21912: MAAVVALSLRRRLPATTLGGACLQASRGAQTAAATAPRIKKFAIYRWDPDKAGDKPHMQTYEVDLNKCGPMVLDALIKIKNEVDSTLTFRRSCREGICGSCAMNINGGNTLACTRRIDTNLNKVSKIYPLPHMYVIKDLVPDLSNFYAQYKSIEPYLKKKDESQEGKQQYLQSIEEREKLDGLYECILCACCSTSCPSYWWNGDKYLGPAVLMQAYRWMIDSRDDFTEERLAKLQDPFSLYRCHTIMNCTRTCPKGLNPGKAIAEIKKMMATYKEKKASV
UniProt O00560: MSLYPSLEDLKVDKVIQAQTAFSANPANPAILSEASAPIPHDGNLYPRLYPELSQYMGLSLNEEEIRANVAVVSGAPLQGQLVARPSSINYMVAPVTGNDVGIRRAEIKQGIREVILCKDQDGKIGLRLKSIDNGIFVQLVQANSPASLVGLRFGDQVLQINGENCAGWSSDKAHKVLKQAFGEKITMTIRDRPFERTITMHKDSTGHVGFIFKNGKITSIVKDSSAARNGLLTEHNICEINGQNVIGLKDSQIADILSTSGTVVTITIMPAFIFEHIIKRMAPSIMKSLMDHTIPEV
UniProt Q14151: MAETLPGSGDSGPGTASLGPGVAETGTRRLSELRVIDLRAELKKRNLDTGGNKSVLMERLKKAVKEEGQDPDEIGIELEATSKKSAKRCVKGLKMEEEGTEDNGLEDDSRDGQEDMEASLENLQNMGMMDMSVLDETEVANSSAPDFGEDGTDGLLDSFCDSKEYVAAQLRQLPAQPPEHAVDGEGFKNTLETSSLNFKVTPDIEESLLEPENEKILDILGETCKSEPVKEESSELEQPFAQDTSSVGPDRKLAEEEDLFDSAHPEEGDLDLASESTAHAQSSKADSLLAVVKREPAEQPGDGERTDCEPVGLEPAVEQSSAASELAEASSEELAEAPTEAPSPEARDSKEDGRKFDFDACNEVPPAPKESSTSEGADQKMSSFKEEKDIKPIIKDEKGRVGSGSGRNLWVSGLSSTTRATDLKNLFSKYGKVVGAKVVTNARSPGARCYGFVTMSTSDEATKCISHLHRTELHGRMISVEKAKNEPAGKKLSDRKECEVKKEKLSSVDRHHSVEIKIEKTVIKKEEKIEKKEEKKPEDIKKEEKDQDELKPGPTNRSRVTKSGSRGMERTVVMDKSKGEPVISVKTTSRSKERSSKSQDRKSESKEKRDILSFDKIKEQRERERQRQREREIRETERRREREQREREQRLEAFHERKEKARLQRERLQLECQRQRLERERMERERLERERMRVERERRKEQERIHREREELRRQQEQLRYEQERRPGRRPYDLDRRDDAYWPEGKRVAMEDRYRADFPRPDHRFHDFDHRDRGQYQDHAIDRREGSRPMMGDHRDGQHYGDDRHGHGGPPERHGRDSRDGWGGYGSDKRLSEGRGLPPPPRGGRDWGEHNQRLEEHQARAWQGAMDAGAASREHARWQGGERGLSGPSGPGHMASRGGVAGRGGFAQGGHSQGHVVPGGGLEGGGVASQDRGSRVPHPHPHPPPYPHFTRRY
UniProt Q9Y512: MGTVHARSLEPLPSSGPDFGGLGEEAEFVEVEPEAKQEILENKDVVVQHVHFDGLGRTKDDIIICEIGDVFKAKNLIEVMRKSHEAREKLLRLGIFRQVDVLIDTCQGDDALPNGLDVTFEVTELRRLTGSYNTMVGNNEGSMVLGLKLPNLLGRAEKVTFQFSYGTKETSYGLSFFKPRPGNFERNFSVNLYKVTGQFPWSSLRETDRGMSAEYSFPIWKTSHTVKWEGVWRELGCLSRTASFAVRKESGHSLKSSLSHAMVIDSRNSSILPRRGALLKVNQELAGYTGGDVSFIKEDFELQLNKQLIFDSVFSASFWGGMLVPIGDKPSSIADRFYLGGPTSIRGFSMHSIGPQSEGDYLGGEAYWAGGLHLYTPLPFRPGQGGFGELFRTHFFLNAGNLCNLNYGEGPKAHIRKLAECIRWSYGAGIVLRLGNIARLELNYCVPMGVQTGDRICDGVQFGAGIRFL
UniProt Q9UQR0: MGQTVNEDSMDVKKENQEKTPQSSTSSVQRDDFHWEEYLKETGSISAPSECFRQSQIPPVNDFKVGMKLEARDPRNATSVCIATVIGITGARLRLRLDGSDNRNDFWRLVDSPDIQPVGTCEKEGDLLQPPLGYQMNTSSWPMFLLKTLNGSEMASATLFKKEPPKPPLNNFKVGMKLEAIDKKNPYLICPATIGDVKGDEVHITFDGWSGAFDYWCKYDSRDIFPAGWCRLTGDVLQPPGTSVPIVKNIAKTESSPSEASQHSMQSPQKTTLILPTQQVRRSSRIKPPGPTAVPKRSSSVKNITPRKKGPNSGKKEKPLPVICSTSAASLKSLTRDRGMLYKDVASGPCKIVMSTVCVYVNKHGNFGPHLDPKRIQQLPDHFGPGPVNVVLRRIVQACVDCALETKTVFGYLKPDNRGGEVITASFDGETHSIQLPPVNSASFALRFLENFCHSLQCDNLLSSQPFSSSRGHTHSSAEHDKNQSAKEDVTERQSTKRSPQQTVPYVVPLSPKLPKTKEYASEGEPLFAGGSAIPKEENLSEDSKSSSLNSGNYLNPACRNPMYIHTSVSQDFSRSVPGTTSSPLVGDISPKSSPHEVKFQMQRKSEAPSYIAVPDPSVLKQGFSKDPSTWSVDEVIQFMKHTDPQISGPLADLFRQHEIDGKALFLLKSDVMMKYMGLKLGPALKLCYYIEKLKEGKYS
UniProt Q15437: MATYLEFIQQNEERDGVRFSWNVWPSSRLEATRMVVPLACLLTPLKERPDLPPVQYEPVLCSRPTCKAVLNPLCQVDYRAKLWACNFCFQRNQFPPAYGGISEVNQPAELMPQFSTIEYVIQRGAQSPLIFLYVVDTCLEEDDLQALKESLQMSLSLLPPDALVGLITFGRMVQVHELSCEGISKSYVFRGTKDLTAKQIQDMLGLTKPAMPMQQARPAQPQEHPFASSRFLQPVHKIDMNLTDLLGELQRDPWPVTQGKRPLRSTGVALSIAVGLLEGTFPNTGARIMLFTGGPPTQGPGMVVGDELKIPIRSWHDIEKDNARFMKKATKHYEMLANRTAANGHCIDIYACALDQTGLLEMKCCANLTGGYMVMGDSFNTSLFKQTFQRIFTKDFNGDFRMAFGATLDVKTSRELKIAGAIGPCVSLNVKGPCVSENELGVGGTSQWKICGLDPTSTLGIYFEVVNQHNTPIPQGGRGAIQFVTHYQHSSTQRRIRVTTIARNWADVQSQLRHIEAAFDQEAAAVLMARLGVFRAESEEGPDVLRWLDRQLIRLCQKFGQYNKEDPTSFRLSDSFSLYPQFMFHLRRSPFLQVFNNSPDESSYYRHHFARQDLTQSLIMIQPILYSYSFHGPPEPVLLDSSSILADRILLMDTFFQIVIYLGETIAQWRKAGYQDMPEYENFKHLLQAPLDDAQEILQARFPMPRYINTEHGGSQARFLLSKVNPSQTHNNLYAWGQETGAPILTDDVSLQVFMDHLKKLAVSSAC

[2] = compound: CN1CCc2c(c3ccccc3n2Cc2ccc(C(=O)NO)cc2)C1 [Tubastatin A]
Procedure, shortened: as §1

[3] = compound: CNC(=O)C1=CC=CC=C1NC2=NC(=NC=C2Cl)NC3=C(C=C(C=C3)N4CCOCC4)OC
Procedure, shortened: as §1

[4] = compound: CNC(=O)c1ccc(Nc2ncc(C(F)(F)F)c(NCc3nccnc3N(C)S(C)(=O)=O)n2)cc1 [defactinib]
Procedure, shortened: as §1

[5] = compound: CNc1nc(-c2ccc3c(N)n[nH]c3c2)cc(N2C[C@@H](C(=O)NC3CCCCC3)CC[C@H]2C)n1
Procedure, shortened: as §1

[6] = compound: COC(=O)N[C@@H](C)CNc1nccc(-c2cn(C(C)C)nc2-c2cc(Cl)cc(NS(C)(=O)=O)c2F)n1 [encorafenib]
Procedure, shortened: as §1

[7] = compound: COC(=O)[C@H](CCSC)NC(=O)C1=C(C=C(C=C1)NC[C@H](CS)N)C2=CC=CC=C2
Procedure, shortened: as §1

[8] = compound: COc1cc(Nc2ncc3c(n2)-c2ccc(Cl)cc2C(c2c(F)cccc2OC)=NC3)ccc1C(=O)O [alisertib]
Procedure, shortened: as §1

[9] = compound: COc1cc2nc(-c3cc(F)ccc3O)nc(N[C@@H]3CNC[C@H]3C(C)(C)O)c2cc1OC
Procedure, shortened: as §1

[10] = compound: COc1cc2ncnc(Nc3ccc(F)c(Cl)c3)c2cc1OCCCN1CCOCC1 [gefitinib]
Procedure, shortened: as §1

[11] = compound: CS(=O)(=O)CCNCc1ccc(-c2ccc3ncnc(Nc4ccc(OCc5cccc(F)c5)c(Cl)c4)c3c2)o1 [lapatinib]
Procedure, shortened: as §1

[12] = compound: CS(=O)(=O)N1CCN(Cc2cc3nc(-c4cccc5[nH]ncc45)nc(N4CCOCC4)c3s2)CC1 [pictilisib]
Procedure, shortened: as §1

[13] = compound: C[C@@H](Oc1cc(-c2cnn(C3CCNCC3)c2)cnc1N)c1c(Cl)ccc(F)c1Cl [crizotinib]
Procedure, shortened: as §1

[14] = compound: C[C@H](C1=CC=C(C=C1)C(=O)NC2=C3C=CNC3=NC=C2)N
Procedure, shortened: as §1

[15] = compound: C[C@H](Nc1ncnc2nc[nH]c12)c1cc2cccc(Cl)c2c(=O)n1-c1ccccc1 [duvelisib]
Procedure, shortened: as §1

[16] = compound: Cc1cc(Nc2cc(CN3CCOCC3)c3nc(C)c(Cc4ccc(Cl)cc4F)n3n2)n[nH]1 [gandotinib]
Procedure, shortened: as §1

[17] = compound: Cc1cc(Nc2cc(N3CCN(C)CC3)nc(Sc3ccc(NC(=O)C4CC4)cc3)n2)n[nH]1 [tozasertib]
Procedure, shortened: as §1

[18] = compound: Cc1ccc(-n2nc(C(C)(C)C)cc2NC(=O)Nc2ccc(OCCN3CCOCC3)c3ccccc23)cc1 [doramapimod]
Procedure, shortened: as §1

[19] = compound: Cc1ccc(NC(=O)c2ccc(CN3CC[C@H](N(C)C)C3)c(C(F)(F)F)c2)cc1Nc1nccc(-c2cncnc2)n1 [bafetinib]
Procedure, shortened: as §1

[20] = compound: Cc1cccc(CC(=O)N2CCc3c2ccc(-c2cn(C)c4ncnc(N)c24)c3F)n1
Procedure, shortened: as §1

Measured: log2 fold change

SCIN (UniProt Q9Y6U3)
inactive: [1] 0.012 | [2] 0.032 | [3] -0.001 | [4] -0.003 | [5] 0.022 | [6] -0.01 | [7] 0.054 | [8] -0.022 | [9] 0.007 | [10] -0.002 | [11] 0.033 | [12] -0.013 | [13] -0.003 | [14] 0.004 | [15] -0.009 | [16] -0.028 | [17] 0.011 | [18] -0.012 | [19] -0.022 | [20] 0.048

SECISBP2L (UniProt Q93073)
inactive: [1] -0.103 | [2] -0.105 | [3] 0.058 | [4] -0.004 | [5] -0.193 | [6] -0.065 | [7] 0.1 | [8] -0.069 | [9] -0.088 | [10] -0.043 | [11] -0.034 | [12] 0.036 | [13] -0.08 | [14] -0.084 | [15] -0.044 | [16] 0.002 | [17] -0.016 | [18] 0.047 | [19] 0.01 | [20] -0.038

SEL1L (UniProt Q9UBV2)
inactive: [1] -0.007 | [2] 0.025 | [3] -0.021 | [4] 0.012 | [5] 0.013 | [6] 0.025 | [7] -0.023 | [8] 0.006 | [9] -0.013 | [10] 0.039 | [11] -0.042 | [12] -0.052 | [13] 0.014 | [14] 0.031 | [15] -0.046 | [16] -0.036 | [17] -0.027 | [18] 0.006 | [19] -0.048 | [20] 0.029

SACM1L (UniProt Q9NTJ5)
inactive: [1] 0.015 | [2] -0.109 | [3] 0.026 | [4] -0.01 | [5] -0.012 | [6] 0.041 | [7] -0.177 | [8] 0.025 | [9] -0.166 | [10] 0.011 | [11] -0.066 | [12] -0.028 | [13] -0.124 | [14] -0.024 | [15] -0.016 | [16] -0.145 | [17] 0.01 | [18] 0.026 | [19] -0.077 | [20] 0.095

SEC62 (UniProt Q99442)
inactive: [1] 0.046 | [2] 0.07 | [3] 0.019 | [4] 0.02 | [5] 0.045 | [6] -0.012 | [7] -0.084 | [8] -0.003 | [9] -0.028 | [10] 0.004 | [11] 0.028 | [12] -0.029 | [13] 0.011 | [14] 0.231 | [15] 0 | [16] -0.07 | [17] -0.024 | [18] 0.002 | [19] 0.029 | [20] -0.072

SEPTIN5 (UniProt G3XAH0)
inactive: [1] -0.008 | [2] 0.047 | [3] -0.075 | [4] 0.034 | [5] -0.021 | [6] -0.031 | [7] 0.004 | [8] -0.068 | [9] 0.015 | [10] -0.019 | [11] -0.013 | [12] -0.079 | [13] -0.019 | [14] -0.059 | [15] -0.017 | [16] 0.027 | [17] 0.011 | [18] 0.019 | [19] 0.028 | [20] 0.055

SDHB (UniProt P21912)
inactive: [1] -0.031 | [2] 0.004 | [3] 0.006 | [4] 0.028 | [5] 0.02 | [6] 0.009 | [7] -0.009 | [8] 0.014 | [9] -0.005 | [10] -0.016 | [11] 0.039 | [12] 0.003 | [13] 0.007 | [14] -0.043 | [15] -0.016 | [16] 0.015 | [17] 0.024 | [18] -0.004 | [19] 0.069 | [20] 0.014

SDCBP (UniProt O00560)
inactive: [1] 0.001 | [2] 0.054 | [3] 0.012 | [4] -0.044 | [5] 0.068 | [6] 0.004 | [7] -0.049 | [8] 0.016 | [9] -0.003 | [10] -0.126 | [11] -0.042 | [12] -0.033 | [13] 0 | [14] 0.019 | [15] -0.015 | [16] 0.01 | [17] -0.019 | [18] 0.03 | [19] -0.002 | [20] 0.011

SAFB2 (UniProt Q14151)
inactive: [1] 0.017 | [2] 0.004 | [3] 0.059 | [4] -0.03 | [5] 0.014 | [6] 0.017 | [7] -0.058 | [8] -0.015 | [9] -0.013 | [10] 0.005 | [11] -0.019 | [12] -0.009 | [13] 0.012 | [14] -0.069 | [15] 0.008 | [16] 0.018 | [17] 0.016 | [18] -0.016 | [19] 0.039 | [20] 0.039

SAMM50 (UniProt Q9Y512)
inactive: [1] 0.004 | [2] -0.021 | [3] 0.015 | [4] -0.015 | [5] -0.011 | [6] 0.016 | [7] -0.066 | [8] 0.007 | [9] -0.05 | [10] 0.007 | [11] 0.009 | [12] -0.007 | [13] -0.021 | [14] 0.068 | [15] -0.015 | [16] -0.008 | [17] -0.008 | [18] 0.011 | [19] -0.018 | [20] -0.016

SCAMP3 isoform 2 (UniProt O14828)
inactive: [1] -0.151 | [2] -0.117 | [3] -0.083 | [4] 0.006 | [5] 0.136 | [6] -0.017 | [7] 0.041 | [8] 0.025 | [9] -0.115 | [10] -0.052 | [11] 0.043 | [12] 0.115 | [13] 0.096 | [14] -0.209 | [15] 0.004 | [16] 0.089 | [17] -0.123 | [18] 0.035 | [19] -0.139 | [20] 0.183

SEC61A2 (UniProt Q9H9S3)
inactive: [1] -0.066 | [2] 0.023 | [3] -0.006 | [4] -0.004 | [5] 0.087 | [6] 0.064 | [7] -0.049 | [8] -0.041 | [9] 0.08 | [10] 0.05 | [11] -0.067 | [12] -0.005 | [13] -0.008 | [14] -0.181 | [15] -0.038 | [16] 0.053 | [17] -0.024 | [18] 0 | [19] -0.037 | [20] 0.061

SCML2 (UniProt Q9UQR0)
inactive: [1] 0.006 | [2] -0.204 | [3] 0.031 | [4] -0.03 | [5] -0.035 | [6] 0.01 | [7] 0.18 | [8] 0.025 | [9] -0.016 | [10] -0.053 | [11] 0.035 | [12] -0.027 | [13] -0.022 | [14] 0.034 | [15] 0.006 | [16] -0.045 | [17] 0.029 | [18] 0 | [19] -0.017 | [20] -0.014

SEC23B (UniProt Q15437)
inactive: [1] 0.013 | [2] 0.004 | [3] 0.012 | [4] -0.009 | [5] -0.01 | [6] -0.023 | [7] 0.007 | [8] 0.01 | [9] 0.003 | [10] -0.03 | [11] -0.011 | [12] -0.056 | [13] 0.013 | [14] 0.006 | [15] -0.003 | [16] -0.024 | [17] 0.022 | [18] -0.005 | [19] 0.01 | [20] -0.006

Quoted at random: 2 records from the list
SEC23B (UniProt Q15437)
inactive: [1] 0.013 | [2] 0.004 | [3] 0.012 | [4] -0.009 | [5] -0.01 | [6] -0.023 | [7] 0.007 | [8] 0.01 | [9] 0.003 | [10] -0.03 | [11] -0.011 | [12] -0.056 | [13] 0.013 | [14] 0.006 | [15] -0.003 | [16] -0.024 | [17] 0.022 | [18] -0.005 | [19] 0.01 | [20] -0.006

SEC61A2 (UniProt Q9H9S3)
inactive: [1] -0.066 | [2] 0.023 | [3] -0.006 | [4] -0.004 | [5] 0.087 | [6] 0.064 | [7] -0.049 | [8] -0.041 | [9] 0.08 | [10] 0.05 | [11] -0.067 | [12] -0.005 | [13] -0.008 | [14] -0.181 | [15] -0.038 | [16] 0.053 | [17] -0.024 | [18] 0 | [19] -0.037 | [20] 0.061

More records.

SEH1L isoform 1 (UniProt Q96EE3)
inactive: [1] -0.042 | [2] 0 | [3] 0 | [4] -0.028 | [5] -0.014 | [6] -0.007 | [7] -0.077 | [8] 0.001 | [9] 0.01 | [10] -0.004 | [11] -0.03 | [12] -0.009 | [13] 0.01 | [14] -0.027 | [15] -0.049 | [16] 0.029 | [17] 0.011 | [18] 0.007 | [19] -0.085 | [20] 0.052

SCAF4 (UniProt O95104)
inactive: [1] -0.098 | [2] -0.043 | [3] -0.039 | [4] -0.004 | [5] -0.014 | [6] 0.006 | [7] 0.053 | [8] -0.003 | [9] 0.033 | [10] -0.037 | [11] -0.015 | [12] -0.084 | [13] -0.046 | [14] -0.049 | [15] 0.043 | [16] -0.051 | [17] 0.011 | [18] -0.003 | [19] -0.024 | [20] 0.066

— the supplement of paper PMC10849652
